Conditions in all cases: 10 µM; pre-incubation: 30-90 min
Test [1] deals with Danio rerio larvae (5 dpf, TLF). Kind of test: OMR-Perf (SSMD vs DMSO vehicle); higher = higher than vehicle (e.g. higher dark-flash O-bend response probability, or better optomotor performance).
Test [2] has the same test system. Kind of test: Prob-Test (SSMD vs DMSO vehicle); higher = higher than vehicle (e.g. higher dark-flash O-bend response probability, or better optomotor performance).
The test system is the same in test [3]. Kind of test: Prob-Naive (SSMD vs DMSO vehicle); higher = higher than vehicle (e.g. higher dark-flash O-bend response probability, or better optomotor performance).
Test [4] has the same test system. Kind of test: Prob-Train (SSMD vs DMSO vehicle); higher = higher than vehicle (e.g. higher dark-flash O-bend response probability, or better optomotor performance).

SMILES strings stand for the structures. The list shows a part of the results. Single values are uncertain here, since repeats match poorly.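 Free-swimming zebrafish larvae were assessed for O-bend response probability to dark flashes (naive: first five; training: remaining flashes across four 60-flash blocks; test: later 60-flash block) and for OMR turning toward alternating leftward/rightward LED motion. Six treated larvae were compared against sixty 0.1% DMSO controls; hits required |SSMD|≥2.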

Turning to `O=C(/C=C/C=C/c1ccc2c(c1)OCO2)N1CCCCC1` [Piperine], the OMR-Perf in test [1] is -0.722. The Prob-Test in test [2] was -2. In test [3], this molecule yielded a Prob-Naive of -2.4. This molecule came in with a Prob-Train in test [4] of -2.81.

In turn, `C=CCN1CCCC1CNC(=O)c1cc2nn[nH]c2cc1OC.Cl` (configuration not stated) [Alizapride HCl] registered an OMR-Perf in test [1] of -0.463. The molecule further came in with a Prob-Test in test [2] of -0.404. In test [3], this molecule had a Prob-Naive of 0.312. For the same molecule, the Prob-Train in test [4] was -0.419.

Molecule `Cc1cccc(C)c1OCC(=O)N[C@@H](Cc1ccccc1)[C@@H](O)C[C@H](Cc1ccccc1)NC(=O)[C@H](C(C)C)N1CCCNC1=O` [Lopinavir] registered an OMR-Perf in test [1] of 0.0868. Further, the Prob-Test in test [2] stood at 0.147. The Prob-Naive in test [3] is 0.449. Also, the Prob-Train in test [4] is -0.613.

Molecule `CCCCCN(C)CCC(O)(P(=O)(O)O)P(=O)(O)O.O.[Na]` [Ibandronate sodium] showed an OMR-Perf in test [1] of -0.29. The Prob-Test in test [2] was -0.00639. In test [3], this molecule showed a Prob-Naive of 0.13. Further, the Prob-Train in test [4] was -0.182.

With `CCCNC(C)C(=O)Nc1ccccc1C` (configuration not stated) [Prilocaine], in test [1], the OMR-Perf stood at 0.238. The same molecule gave a Prob-Test in test [2] of -0.221. Also, the Prob-Naive in test [3] came out at 0.184. This molecule had a Prob-Train in test [4] of 0.259.

`NC(=O)c1ccc(N(C(N)=O)c2c(F)cccc2F)nc1-c1ccc(F)cc1F`: in test [1], the OMR-Perf is -0.511. In test [2], the Prob-Test was -0.393. This molecule also yielded a Prob-Naive in test [3] of 0.319. This molecule registered a Prob-Train in test [4] of -0.674.

Molecule `C=C1CC[C@H](O)C/C1=C\C=C1/CCC[C@@]2(C)[C@H]1CC[C@H]2[C@H](C)CCCC(C)(C)O` [Calcifediol] had an OMR-Perf in test [1] of -1.09. Besides, in test [2], the Prob-Test was -1.6. The molecule also yielded a Prob-Naive in test [3] of -0.483. The Prob-Train in test [4] was -1.59.

`C[C@@H](Oc1cc(-c2cnn(C3CCNCC3)c2)cnc1N)c1c(Cl)ccc(F)c1Cl`: the OMR-Perf in test [1] came out at 0.631. This molecule displayed a Prob-Test in test [2] of -0.355. In test [3], this molecule came in with a Prob-Naive of -0.16. The molecule further gave a Prob-Train in test [4] of 0.113.

(Values after the supplement of paper PMC10727501.)
